In patent US20180311342A1, “IMMUNOSTIMULATING AGENT” (AJINOMOTO CO., INC., priority 2017, published 2018):
For at least one compound, name, drawing or mass did not settle the structure. Some entries repeat one wording, which the source may state once for all of them.

Tested on: anti-OVA-specific IgG1 and IgG2a subclass antibody production
Assay: Evaluation test of adjuvant activity (overall conclusion from anti-OVA IgG1 and IgG2a production)
Type: in vivo, BALB/c mice
Conditions: compound 0.256 μmol in 5% αCD-added saline with OVA 5 μg, dorsal-subcutaneous
Method: 8-Week-old female BALB/c mice were divided into groups (N=6), and each group was primarily immunized by dorsal-subcutaneous administration of (1) ovalbumin (OVA) (5 μg) dissolved in saline as an antigen (OVA single administration group), (2) OVA 5 μg and Addavax™ (mixed with saline at 1:1) dissolved in saline (Addavax™ administration group) as positive control adjuvant, (3) OVA 5 μg and SZ137 0.256 μmol dissolved or dispersed in 5% α-cyclodextrin (hereinafter to be simply referred to as αCD)-added saline (SZ137 administration group), (4) OVA (5 μg) and SZ138 (0.256 μmol) dissolved or dispersed in 5% αCD-added saline (SZ138 administration group), (5) OVA (5 μg) and SZ142 (0.256 μmol) dissolved or dispersed in 5% αCD-added saline (SZ142 administration group), (6) OVA (5 μg) and SZ144 (0.256 μmol) dissolved or dispersed in 5% αCD-added saline (SZ144 administration group), (7) OVA (5 μg) and SZ145 (0.256 μmol) dissolved or dispersed in 5% αCD-added saline (SZ145 administration group), (8) OVA (5 μg) and SZ146 (0.256 μmol) dissolved or dispersed in 5% αCD-added saline (SZ146 administration group), (9) OVA (5 μg) and SZ147 (0.256 μmol) dissolved or dispersed in 5% αCD-added saline (SZ147 administration group), (10) OVA (5 μg) and SZ148 (0.256 μmol) dissolved or dispersed in 5% αCD-added saline (SZ148 administration group), each per mouse. Two week later, the secondary immunization was carried out by dorsal-subcutaneous administration of solutions or dispersions similar to those of the above-mentioned (1)-(10) again. […]
To a 96 well plate was added 5 μg/ml OVA at 100 µl/well, and the mixture was incubated at 4° C. overnight. After incubation, the mixture was washed three times with 200 μl of PBS-T (PBS (phosphate buffered saline)+0.05% (v/v) Tween 20) per well, and blocked with 100 μl of 5% FCS (fetal calf serum)/PBS solution per well at room temperature for 1-2 hr. Thereafter, the mixture was washed three times with PBS-T (200 μl/well), a diluted serum sample (100 l/well) or the same amount of 5% FCS/PBS solution as a control was added, and the mixture was incubated at 37° C. for 1 hr. To calculate concentration of the antibody, the standard of an anti-OVA-specific IgG1 subclass antibody diluted with 2% FCS/PBS solution was added at 100 ng/ml, 50 ng/ml, 25 ng/ml, 12.5 ng/ml, 6.25 ng/ml, 3.125 ng/ml, 1.56 ng/ml, 0.781 ng/ml, 0.391 ng/ml, 0.195 ng/ml, 0.098 ng/ml, 0 ng/ml, per 1 well. When an anti-OVA-specific IgG2a subclass antibody was measured, the standard of an anti-OVA-specific IgG2a subclass antibody was added at 50 ng/ml, 25 ng/ml, 12.5 ng/ml, 6.25 ng/ml, 3.125 ng/ml, 1.56 ng/ml, 0.781 ng/ml, 0.391 ng/ml, 0.195 ng/ml, 0.098 ng/ml, 0.049 ng/ml, 0 ng/ml, per 1 well. Thereafter, similar to the samples, the mixture was washed five times with PBS-T (200 μl/well), a diluted biotinylated anti-mouse IgG1 antibody and IgG2a antibody were added (100 μl/well), and the mixture was incubated at 37° C. for 45 min. Thereafter, the mixture was washed five times with PBS-T (200 μl/well), a diluted anti-biotin-HRP antibody was added (100 μl/well), and the mixture was incubated at 37° C. for another 30 min. […] Thereafter, a reaction quenching liquid (2N sulfuric acid solution) was added (50 l/well) to discontinue a color developing reaction, and the absorbance (OD Value=450 nm) was measured by a microplate reader. A standard curve was drawn from the measured OD values, and the concentration was calculated. […]

[1] = conclusion from IgG1/IgG2a after secondary immunization
[2] = conclusion from IgG1/IgG2a after primary immunization

Structure (SMILES)	adjuvant activity [1]	adjuvant activity [2]
CCCCCCCCCCCCCCCCNC(=O)N[C@@H](CCCNC(=N)N)C(=O)NCCCCCCCCCCCC.Cl [SZ149, (2S)—N-dodecyl-5-guanidino-2-(hexadecylcarbamoylamino)pentanamide hydrochloride]	have an adjuvant activity	
CCCCCCCCCCCCCCCCNC(=O)N[C@@H](CC(C)C)C(=O)NCCCCCCCCCCCC [SZ200, (2S)—N-dodecyl-2-(hexadecylcarbamoylamino)-4-methyl-pentanamide]	have an adjuvant activity	have an adjuvant activity
CCCCCCCCCCCCCCCCOC(=O)N[C@@H](CC(C)C)C(=O)NCCCCCCCCCCCC [SZ202, hexadecyl N-[(1S)-1-(dodecylcarbamoyl)-3-methyl-butyl]carbamate]	have an adjuvant activity	have an adjuvant activity
